Measured values as given in paper PMC4206519, “Lack of Renoprotective Effect of Chronic Intravenous Angiotensin-(1-7) or Angiotensin-(2-10) in a Rat Model of Focal Segmental Glomerulosclerosis” (PLoS ONE, 2014).

Tests used:
[1] = system: uni-nephrectomized fawn-hooded hypertensive (FHH) rats; settings: late disease model, after 12 weeks, low-dose Ang peptides 100 ng/kg/min iv, captopril 100 mg/kg/d or losartan 20 mg/kg/d orally, n=9/group; for Body Wt, Final (week 30) / Kid. Wt/B. Wt, Final (week 30) / Kidney Wt, Final (week 30): mean (SD), SD
Protocol: (§1) Male FHH rats (In-house colony established from animals obtained from Charles River Laboratories, Wilmington, MA) were housed at a certified animal facility at 22°C and a 12∶12 h light/dark cycle. […] All surgeries were performed under isoflurane anesthesia (5% induction, 2% maintenance), at 37°C, and perioperative buprenorphine.
(§2) Following anesthesia, an incision was made in the left flank; the kidney was exposed and excised after ligation of the pedicle. […] Under anesthesia, a mini-pump was placed in a subcutaneous pocket. […] Pumps were replaced once during the treatment period. For the early disease model, five groups of rats were examined. […] For the late disease model, eight groups of rats were examined. […] The dosages of the Ang peptides were selected based on previous studies where Ang-(1-7) was similarly administered using implanted osmotic mini-pumps, [16], [17], [26]. […] Systemic blood pressure was measured by tail-cuff sphygmomanometer (Natume, Japan). Animals were placed on metabolic cages for urine collection at pre-specified time points. Urinary protein excretion was measured by the method of Lowry. Urinary sodium concentration was measured by ion-selective electrodes. At sacrifice, kidneys were harvested for histological analysis and measurement of Ang peptide concentration.
(§3) Upon harvesting, kidneys were cleared of blood by transcardiac perfusion of iced-cold phosphate buffered saline, excised and fixed in 4% paraformaldehyde, embedded in paraffin and processed for microscopic examination. Kidney sections (2-µm) were stained with hematoxylin-eosin (H&E), Jones silver and Periodic Acid Schiff (PAS). Slides were reviewed by an experienced renal pathologist (S.S) in a blinded fashion. Index of glomerulosclerosis was evaluated by a semiquantitative score based on the percentage of the glomerular tuft occupied by sclerotic lesions (0: no lesions, 1: lesions affecting less than 25% of the glomerulus, 2-3-4: lesions affecting 25–50%, 50–75% and 75–100% of the glomerulus, respectively). Tubular injury was rated based on presence of tubular atrophy, microcystic tubular dilation and interstitial fibrosis, from 0 to 3 (0: none; 1: mild; 2: moderate; 3: severe).
Blood pressure data were analyzed by repeated measures ANOVA. Differences within groups were analyzed using paired t-tests adjusted with Bonferroni modification. Differences between group means at each time point were tested using one-way ANOVA followed by Tukey-Kramer post-hoc test. Urinary protein excretions were log10 transformed and tested using a two-way ANOVA for repeated measures followed by Scheffe post hoc test for differences between the groups. Untransformed 24-hour urinary protein excretions at each time point were then tested using Kruskal-Wallis test. If a significant main effect was detected then differences between groups were tested using the Mann-Whitney U test with the probability adjusted using the Bonferroni modification. Urine sodium was also assessed by two-way ANOVA for repeated measures and pairwise multiple comparisons were made using the Holm-Sidak method. Multiple comparisons of Ang peptide levels were made using ANOVA when data were normally distributed and with log10 transformation when non-normally distributed. Post-hoc pairwise comparisons were made using the Holm-Sidak method. […] For Ang peptide measurements by LC/MS/MS, only values above the LLOQ were utilized for statistical comparisons.

[2] = system: uni-nephrectomized fawn-hooded hypertensive (FHH) rats; assay: Model of FSGS, early disease protocol (blood pressure, proteinuria, histology, weights, urine); format: in vivo, rat; settings: after 8 weeks, n=4/group
Protocol: as §1, §2, §3
Blood pressure data were analyzed by repeated measures ANOVA. Differences within groups were analyzed using paired t-tests adjusted with Bonferroni modification. Differences between group means at each time point were tested using one-way ANOVA followed by Tukey-Kramer post-hoc test. […] If a significant main effect was detected then differences between groups were tested using the Mann-Whitney U test with the probability adjusted using the Bonferroni modification. Urine sodium was also assessed by two-way ANOVA for repeated measures and pairwise multiple comparisons were made using the Holm-Sidak method. […]

[3] = Ang peptides 100 ng/kg/min iv mini-pump, captopril 100 mg/kg/d in drinking water, captopril n=5, mean (SD), SD

Structure (SMILES)	Urine sodium, Final (week 30) [1]	Body Wt, Final (week 30) [1]	Kid. Wt/B. Wt, Final (week 30) [1]	Kidney Wt, Final (week 30) [1]	Body Wt, Final (week 15) [2, 3]	Kid. Wt/B. Wt, Final (week 15) [2, 3]	Kidney Wt, Final (week 15) [2, 3]	Urine sodium, Final (week 15) ([2]; Ang peptides 100 ng/kg/min iv, captopril 100 mg/kg/d, ion-selective electrodes, captopril n=5)
CCCCc1nc(Cl)c(CO)n1Cc1ccc(-c2ccccc2-c2nn[nH]n2)cc1 [Losartan, losartan]	36.5 (13) mg/day	351 (22) g	0.6 (0.1) g/100 g b.wt	2.1 (0.1) g				
C[C@H](CS)C(=O)N1CCC[C@H]1C(=O)O [Captopril, captopril]	36.1 (12) mg/day	354 (16) g	0.5 (0.1) g/100 g b.wt	1.9 (0.1) g	284 (10) g	0.5 (0.0) g/100 g b.wt	1.6 (0.1) g	36.3 (13) mg/day
